Data reported in PubChem BioAssay AID1347075 (National Center for Advancing Translational Sciences (NCATS), 2019).
Values joined by “and” are separate entries in the source; they are usually repeats but may differ in a detail not shown here. Equal entries are not always repeated. Among all 400,000 compounds or so, about 5,500 (1.4%) were called active. The inconclusive results got no clear call from the source; some entries with a clear call stand among them for comparison. Calls come from the whole dose curve; as a rule, active = well fitted cell-killing curve with a large enough effect; inconclusive = small, poorly fitted or top-dose-only effect, or effect the other way; inactive = flat fitted curve, though single readings scatter. Potencies beside an inconclusive call are fits to weak or partial responses and may not hold up.

Test: qHTS assay for MDR1-selective chemotherapeutics: Primary screen using the parental adenocarcinoma cell KB-3-1; note: nearly all actives have a fitted effect of over 60% in size
Conditions: KB-3-1 viability, CellTiter-Glo ATP luminescence, 72 h; activity change, negative = cytotoxic: at 46.1 µM (top of the series)
Procedure, shortened: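 Screening of KB-3-1 cells (DMEM, 10% FBS, phenol-red free) ran from lowest to highest compound concentration; after 72 h at 37 °C viability was read luminescently and curves fitted.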
% is set by controls: 0 for no effect and ±100 for the full control effect; potency is the fitted concentration of half-maximal effect.

Compound	Potency	activity change, negative = cytotoxic
CCC1CCC2(C1)N=C(Nc1nc3ccccc3o1)NC1=C2C(=O)CCC1 (centres undefined)	inconclusive: 20.6 µM [cytotoxic, single point]	inconclusive: 39%
CCOC(=O)CSc1nc(C)cc(=O)[nH]1	inactive	
CCOc1cc(-c2cc(-c3ccc(C)cc3)nc(N)c2C#N)ccc1O	active: 5.8 µM	
Cc1cc2cc(C(c3nnnn3Cc3ccco3)N3CCc4ccccc4C3)c(=O)[nH]c2cc1C (centres undefined)	inconclusive: 29.1 µM [cytotoxic, single point]	
Cc1c(C(=O)N(Cc2ccccc2)C2CCS(=O)(=O)C2)oc2ccccc12 (centres undefined)	inactive	
Cc1cccc(-c2ccc3[nH]c4c(c3c2)CCN2C[C@@H]([C@H](C)O)[C@@H](N(C)C(=O)NC3CCCCC3)C[C@@H]42)c1	inconclusive: 16.4 µM [cytotoxic, single point]	
COc1ccc(Cl)cc1N1C(=O)C2CCCN2C1c1ccccc1F (centres undefined)	inconclusive: 18.4 µM [cytotoxic, single point]	
Brc1ccccc1CN1CCN(Cc2c[nH]c3ccccc23)CC1	inconclusive: 29.1 µM [cytotoxic, partial curve, poor fit]	
C=CCn1c(-c2ccc(F)cc2)n[nH]c1=S	inactive	
Cc1ccc2nc(-c3ccccn3)c(Nc3ccccc3C)n2c1	inconclusive: 25.9 µM [cytotoxic, single point] and inconclusive: 18.4 µM [cytotoxic, single point]	
CCOC(=O)C1(CCOc2ccccc2)CCN(Cc2ccc(O)c(OC)c2)CC1	inactive	
O=C(C1CCN(S(=O)(=O)c2cccs2)CC1)N(c1ccccn1)C1CCCCC1	inactive	
COc1ccc(-c2noc(CSc3nc4ccccc4[nH]3)n2)cc1OC	inconclusive: 29.1 µM [cytotoxic, single point]	
Cc1c(NC(=O)/C(C#N)=C/c2ccc(-c3cccc(Cl)c3)o2)c(=O)n(-c2ccccc2)n1C	inconclusive: 29.1 µM [cytotoxic, single point]	
COc1cc(N2N=C(c3ccccc3)CC2c2ccccc2)c(C=O)cc1C=O (centres undefined)	inconclusive: 16.4 µM [cytotoxic, single point]	
C#CCN(C1CCCC1)S(=O)(=O)C=C	inconclusive: 29.1 µM [cytotoxic, single point]	
Cc1ccc(CN2CCN(C(=O)CCC(=O)Nc3nnc(C(C)C)s3)CC2)c(C)c1	inactive	
COc1ccc(-c2csc3ncnc(N4CCN(S(=O)(=O)c5ccc(Cl)s5)CC4)c23)cc1	inconclusive: 29.1 µM [cytotoxic, single point]	
